Test results as given in the supplement of paper PMC3334620.
Over roughly 33,000 sequences, “E-score (-0.5 to 0.5)” has its median near -0.0014; the highest 2% begin near 0.25. Some of the results follow.

target: T1, Cad1 (UniProt P24813); test: PBM E-score (8-mer binding enrichment) (E-score (-0.5 to 0.5)); higher = stronger / more preferred TF binding; conditions: protein concentration: 100 nM; construct: GST-full length
T1 sequence: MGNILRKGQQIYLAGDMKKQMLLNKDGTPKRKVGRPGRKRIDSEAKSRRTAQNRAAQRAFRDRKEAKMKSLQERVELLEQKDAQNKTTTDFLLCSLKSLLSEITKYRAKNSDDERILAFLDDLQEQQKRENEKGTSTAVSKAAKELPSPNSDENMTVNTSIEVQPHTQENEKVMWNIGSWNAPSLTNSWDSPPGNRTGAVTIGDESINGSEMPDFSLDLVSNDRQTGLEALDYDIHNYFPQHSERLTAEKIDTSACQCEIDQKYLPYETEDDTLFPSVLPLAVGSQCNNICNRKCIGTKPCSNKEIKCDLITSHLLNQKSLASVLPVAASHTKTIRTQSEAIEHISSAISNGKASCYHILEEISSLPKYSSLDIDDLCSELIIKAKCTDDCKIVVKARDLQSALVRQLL
Method: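 Universal 'all 10-mer' protein binding microarrays (Agilent AMADID 015681) probed with GST-tagged S. cerevisiae TFs (full-length or DBD) made by in vitro transcription/translation (PURExpress), about 100-200 nM. Bound TF was detected with fluorescent anti-GST. Each ungapped 8-mer (which stands for itself and its reverse complement) is scored by the PBM enrichment score (E-score), a modified Wilcoxon-Mann-Whitney statistic from -0.5 to +0.5, computed with the Universal PBM Analysis Suite. Scale: above 0.35 generally sequence-specific binding.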

Going from CTCGACTA to AGGGGCCA, the “PBM E-score” value falls from 0.0426 to -0.203.

Going from AGTAATAG to GCAGTACC, the “PBM E-score” value falls from 0.16 to -0.0449.

Compared with CAGGGCAC, AACTCAAA is higher in “PBM E-score” value: -0.0726 for the first, 0.111 for the second.

First: AAGCGACG
Second: ATCTGTAG
The “PBM E-score” value of the first is higher: -0.059 for the first, -0.0925 for the second.

Going from GCCACAGC to TACACGGA, the “PBM E-score” value rises from -0.115 to 0.144.

Going from ACCTACTG to CTGCGAGA, the “PBM E-score” value falls from -0.186 to -0.253.

Compared with GATCACCC, CGTGCACC is higher in “PBM E-score” value: -0.0315 for the first, 0.0179 for the second.

First: ACTGCTGG
Second: TCCTGTAA
The “PBM E-score” value of the first is lower: -0.208 for the first, 0.101 for the second.

Compared with ATGTATTC, ACACCTGC is higher in “PBM E-score” value: -0.19 for the first, 0.0761 for the second.

First: ACAATTCA
Second: CTCGGCCA
The “PBM E-score” value of the first is higher: 0.0258 for the first, 0.0029 for the second.

Compared with CTACCCAC, ACGAGTAA is higher in “PBM E-score” value: -0.0998 for the first, 0.202 for the second.

Going from GCTCAGTA to CTTATAAC, the “PBM E-score” value rises from 0.0858 to 0.177.

Going from ATACAGCG to AAAGTTTG, the “PBM E-score” value rises from -0.0419 to -0.0197.

Going from AGCGAGAA to ACGTATCG, the “PBM E-score” value rises from 0.0286 to 0.0407.

Going from TCAACAGA to CGCAGTGC, the “PBM E-score” value falls from 0.098 to -0.172.

Going from CAGAAGCA to ACGGCTCA, the “PBM E-score” value rises from -0.0564 to 0.0668.

Compared with ATACTAAC, ACGTGCTC is lower in “PBM E-score” value: 0.13 for the first, -0.188 for the second.

Compared with CACGTAGG, CCCGGGCG is higher in “PBM E-score” value: -0.105 for the first, -0.0301 for the second.

Going from ACGTACTG to ACCGTGCC, the “PBM E-score” value rises from -0.0913 to -0.00064.

First: CTTATTAC
Second: CGGAATTC
The “PBM E-score” value of the first is higher: 0.218 for the first, 0.0825 for the second.

First: CAAGTGTC
Second: AACCAGAG
The “PBM E-score” value of the first is higher: -0.0435 for the first, -0.0677 for the second.

Going from CCAATGTA to GCACGACC, the “PBM E-score” value falls from -0.123 to -0.154.

First: GTAAAGTA
Second: CCTTAAGA
The “PBM E-score” value of the first is higher: 0.0722 for the first, -0.0638 for the second.

Going from GAACAGAA to ATTCCCTC, the “PBM E-score” value falls from 0.0684 to -0.136.

First: AAGCGGGT
Second: ACCTCCTA
The “PBM E-score” value of the first is higher: -0.0842 for the first, -0.189 for the second.

Going from CAGAATCG to ATATAGAG, the “PBM E-score” value falls from 0.0958 to -0.0207.

Going from GACGGCAC to CGACATAC, the “PBM E-score” value rises from -0.222 to 0.0648.

Compared with AGTTGGAT, GCAGGATA is higher in “PBM E-score” value: -0.0953 for the first, -0.0128 for the second.

Compared with AGTTACAC, ACCTTATA is lower in “PBM E-score” value: 0.137 for the first, 0.0886 for the second.

First: CCAAACGG
Second: ACCTAGAA
The “PBM E-score” value of the first is lower: -0.139 for the first, 0.0783 for the second.

First: TATCATGA
Second: GACCCGAC
The “PBM E-score” value of the first is higher: 0.16 for the first, -0.102 for the second.

Compared with ATTTATAC, AATTGGCC is lower in “PBM E-score” value: 0.226 for the first, 0.0164 for the second.

First: GCCTTCCA
Second: GGGGAGAA
The “PBM E-score” value of the first is higher: -0.0641 for the first, -0.167 for the second.

First: CGCCCCCC
Second: CGCAGGTA
The “PBM E-score” value of the first is lower: -0.5 for the first, -0.0773 for the second.

First: AGCCGGAC
Second: CGTTACTC
The “PBM E-score” value of the first is higher: 0.222 for the first, 0.0728 for the second.

Compared with CCGGTTAA, CCAACCCG is higher in “PBM E-score” value: -0.247 for the first, -0.113 for the second.

Going from GGCTTGAA to CCACTGCA, the “PBM E-score” value rises from -0.0635 to -0.0522.

First: CAAGATGG
Second: CCTAGCTC
The “PBM E-score” value of the first is lower: -0.217 for the first, -0.181 for the second.

Going from TAATCGAA to GGTTTTAA, the “PBM E-score” value falls from 0.35 to -0.0185.

First: AGACCCTG
Second: AACATGCA
The “PBM E-score” value of the first is lower: -0.0768 for the first, 0.0925 for the second.

First: GCGAAAAA
Second: AGACGGCC
The “PBM E-score” value of the first is higher: 0.242 for the first, -0.0104 for the second.

Going from CAAATTGG to AAATGGGA, the “PBM E-score” value falls from 0.217 to -0.167.

Compared with AGGGGTTA, GCCTTCAC is higher in “PBM E-score” value: -0.176 for the first, 0.0863 for the second.

Going from CACTTTGG to TCGATAAA, the “PBM E-score” value rises from 0.0247 to 0.0919.

Going from AGACCTAC to CATCTAAG, the “PBM E-score” value falls from 0.0186 to -0.0246.

Going from ACACCGTG to AATGGCGA, the “PBM E-score” value rises from 0.00204 to 0.0549.

Compared with CCGGTTGC, CACACATG is lower in “PBM E-score” value: 0.237 for the first, -0.164 for the second.

Going from GAGAGCGA to AATTCGTA, the “PBM E-score” value rises from -0.0855 to 0.0688.

Going from CCTTTGCC to GTGCTTTA, the “PBM E-score” value rises from -0.288 to 0.0851.

First: CGTTGCAG
Second: ACATTAGA
The “PBM E-score” value of the first is higher: -0.0504 for the first, -0.141 for the second.

Going from CCTAATAG to GGTGTGAA, the “PBM E-score” value rises from -0.0644 to 0.174.

First: TCTAGACA
Second: CCGTGCGA
The “PBM E-score” value of the first is higher: 0.107 for the first, 0.0484 for the second.

Compared with CTGAAAGA, CTTCATAC is lower in “PBM E-score” value: 0.0278 for the first, -0.0266 for the second.

Compared with ATCAACAC, ACATCTAG is lower in “PBM E-score” value: 0.179 for the first, -0.0478 for the second.

First: AGTGGAAA
Second: AAGCAGAC
The “PBM E-score” value of the first is lower: -0.0817 for the first, -0.0154 for the second.

Going from GCCTTCGA to GGCAATAC, the “PBM E-score” value rises from -0.0191 to 0.0742.

Going from CGAGACCG to AACTCCTG, the “PBM E-score” value falls from 0.0389 to -0.00382.

First: TATCTCAA
Second: AACCGATA
The “PBM E-score” value of the first is lower: 0.102 for the first, 0.176 for the second.

First: GATTTGCA
Second: ACCATGGC
The “PBM E-score” value of the first is lower: 0.215 for the first, 0.234 for the second.

First: CTTATCCA
Second: CCATCCCG
The “PBM E-score” value of the first is higher: 0.127 for the first, -0.046 for the second.

First: AAAAGATA
Second: GTCACACA
The “PBM E-score” value of the first is higher: 0.0416 for the first, 0.018 for the second.

Going from ACTACTAT to ATAGGCAT, the “PBM E-score” value falls from 0.253 to -0.202.

Going from CTGTCAAA to CGTGGATC, the “PBM E-score” value rises from -0.0384 to 0.00251.

First: GATGGCGC
Second: TAATTCAA
The “PBM E-score” value of the first is lower: -0.0508 for the first, 0.245 for the second.

Compared with GACTCGAA, ACGTAAGA is higher in “PBM E-score” value: -0.0678 for the first, 0.199 for the second.

Going from GAGCTCTA to CGCCTGGA, the “PBM E-score” value falls from 0.0699 to -0.0144.

First: AATCAACA
Second: CTTGAGCC
The “PBM E-score” value of the first is higher: 0.275 for the first, -0.221 for the second.

Compared with GCGAGTCC, CTGTCGCC is higher in “PBM E-score” value: -0.129 for the first, -0.029 for the second.

First: ATCGGGCC
Second: ATTTTCGC
The “PBM E-score” value of the first is lower: -0.142 for the first, 0.159 for the second.

Compared with CTGGCACA, ATGGGATG is lower in “PBM E-score” value: -0.108 for the first, -0.116 for the second.

Going from ACCTAAGG to GCCAGGCC, the “PBM E-score” value rises from -0.0442 to -0.0246.

First: AACTCAAC
Second: GTCATCAA
The “PBM E-score” value of the first is higher: 0.19 for the first, 0.16 for the second.

First: CAAATGAC
Second: GCGTAGTA
The “PBM E-score” value of the first is higher: -0.0259 for the first, -0.133 for the second.

First: AATAGCAC
Second: GCGGCACA
The “PBM E-score” value of the first is lower: -0.125 for the first, 0.0291 for the second.

Compared with GACCCGGC, AAGCGAGA is higher in “PBM E-score” value: -0.0968 for the first, -0.0332 for the second.

First: ACCTCGGA
Second: AGCAAACG
The “PBM E-score” value of the first is higher: 0.173 for the first, -0.0955 for the second.

Compared with ATGAGCGA, GTTTAGCA is higher in “PBM E-score” value: 0.109 for the first, 0.139 for the second.

First: ATTTAACC
Second: TCTACAGA
The “PBM E-score” value of the first is lower: -0.242 for the first, -0.127 for the second.

First: CACGTTGA
Second: GGTTCGGA
The “PBM E-score” value of the first is higher: 0.064 for the first, -0.0853 for the second.

First: AGTTAGGC
Second: AACGTCAT
The “PBM E-score” value of the first is lower: -0.0521 for the first, 0.0428 for the second.

First: ACGTCCGG
Second: AGCATCAA
The “PBM E-score” value of the first is lower: -0.0325 for the first, 0.104 for the second.

Compared with ACGCTGAA, GGGCTTTA is lower in “PBM E-score” value: 0.0691 for the first, -0.21 for the second.

Compared with CACTTGTC, AGTCCCGA is lower in “PBM E-score” value: 0.0541 for the first, -0.0735 for the second.

Going from CTCGCTGC to GTCCAACA, the “PBM E-score” value falls from 0.19 to 0.0641.

Going from CTTATGGC to AAGACCGT, the “PBM E-score” value falls from -0.0903 to -0.291.

Compared with TAACTCCA, GCGCCTCC is higher in “PBM E-score” value: -0.101 for the first, -0.0411 for the second.
